Measured values taken from PubChem BioAssay AID328 (DTP/NCI, 2004).
The list does not hold the whole screen: it gathers tests that were run many times, whatever their T/C, doses with no T/C, and many T/C values between a quarter and a half above the control. Other doses and runs of a compound stand elsewhere. T/C gives the treated animals as a percentage of the vehicle group. Some entries give survivors of the animals treated and no T/C: the source files T/C as zero there, which appears to mark a toxic dose or a test without result, not a measured value. Some doses without a T/C left all or most animals alive at the check, yet need not have been tolerated: survival well below the control is almost never listed, so the zero probably covers shortened survival too. Counts of survivors are from the toxicity check (mostly the fifth day) where no day follows; animals may have died later. Schedules are NCI's codes, read here as Q, the interval in days (D) or hours (H), X, the number of doses. For survival time, the PubChem record calls one and a half times the control and up active, and a quarter to a half above the control has no call in these data; cut-offs in other NCI protocols can differ. Some entries hold several experiments; the values are given in rising order. Additions like (4×) give the number of equal values in this list. Some T/C values carry the count of animals alive at the toxicity check (mostly the fifth day); without a count, all were alive then.

System: BDF1 mice, P388 leukemia ip, median survival T/C
Assay: NCI In Vivo Anticancer Drug Screen. Data for tumor model P388 Leukemia (intraperitoneal) in B6D2F1 (BDF1) mice
Settings: T/C endpoint: median survival time, higher T/C = longer survival
Outline: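 Antitumour effect was judged in vivo: survival in drug-treated mice, normalised to that of vehicle-dosed controls, gives the reported T/C.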

[1] = dose: 400.0 mg/kg/injection, schedule: Q04DX003 (ip), vehicle: Klucel (hydroxypropylcellulose) (HPC)
[2] = dose: 200.0 mg/kg/injection, schedule: Q01DX009 (ip), vehicle: saline
[3] = dose: 200.0 mg/kg/injection, schedule: Q04DX003 (ip), vehicle: saline with Tween-80
[4] = dose: 100.0 mg/kg/injection, schedule: Q04DX003 (ip), vehicle: saline with Tween-80
[5] = dose: 400.0 mg/kg/injection, schedule: Q01DX009 (ip), vehicle: Klucel (hydroxypropylcellulose) (HPC)

For `Cc1cc(C)c(CCc2cc(C)c(C)cc2C)cc1C`, the survivor count (dose: 100.0 mg/kg/injection, schedule: Q04DX003 (ip), vehicle: Klucel (hydroxypropylcellulose) (HPC)) was 6 of 6 and the survivor count [1] was 6 of 6.
With `CO[C@H]1CC[C@@]2(C)C(=CC[C@H]3[C@@H]4C[C@H](O)C[C@@]4(C)CC[C@@H]32)C1` the survivor count (dose: 50.0 mg/kg/injection, schedule: Q01DX010 (ip), vehicle: other) was 5 of 6.
`COc1cc2c(cc1OC)-c1cc3cc(OC)c(OC)cc3c(CCC(=O)O)[n+]1CC2` was tested, and the survivor count (dose: 300.0 mg/kg/injection, schedule: Q01DX009 (ip), vehicle: Klucel (hydroxypropylcellulose) (HPC)) was 3 of 3.
With `CSC1SCC2C(=O)N(C)C(C(C)C)C(=O)OCC(NC(=O)c3cnc4ccccc4n3)C(=O)NC(C)C(=O)N(C)C1C(=O)N(C)C(C(C)C)C(=O)OCC(NC(=O)c1cnc3ccccc3n1)C(=O)NC(C)C(=O)N2C` (stereo not drawn) the T/C (dose: 2.5 micrograms/kg/injection, schedule: Q01DX010 (ip), vehicle: saline) was 145 % of control, the T/C (dose: 7.5 micrograms/kg/injection, schedule: Q01DX009 (ip), vehicle: saline with Tween-80) was 125 % of control and the T/C (dose: 10.0 micrograms/kg/injection, schedule: Q01DX010 (ip), vehicle: saline) was 127 % of control [4 of 6 alive]. The T/C (dose: 15.0 micrograms/kg/injection, schedule: Q01DX009 (ip), vehicle: saline with Tween-80) was 132 % of control, the survivor count (dose: 40.0 micrograms/kg/injection, schedule: Q01DX010 (ip), vehicle: saline) was 1 of 6 and the survivor count (dose: 80.0 micrograms/kg/injection, schedule: Q01DX010 (ip), vehicle: saline) was 1 of 6. For the same compound, the survivor count (dose: 160.0 micrograms/kg/injection, schedule: Q01DX010 (ip), vehicle: saline) was 0 of 6 and the survivor count (dose: 320.0 micrograms/kg/injection, schedule: Q01DX010 (ip), vehicle: saline) was 0 of 6.
`CCCCN=C(N)N=C(N)N` was tested, and the survivor count [2] was 0 of 6.
`N#Cc1ncc(C(Cl)(Cl)Cl)nc1Cl` was tested, and the T/C (dose: 200.0 mg/kg/injection, schedule: Q01DX009 (ip), vehicle: saline with Tween-80) was 125 % of control, the survivor count [3] was 5 of 6 and the survivor count (dose: 400.0 mg/kg/injection, schedule: Q04DX003 (ip), vehicle: saline with Tween-80) was 0 of 6.
`Cc1nc(N)c(N)nc1C` was tested, and the survivor count (dose: 75.0 mg/kg/injection, schedule: Q01DX009 (ip), vehicle: saline with Tween-80) was 5 of 6, the survivor count [4] was 3 of 6 and the survivor count [3] was 0 of 6.
In the case of `Cc1cc(C(C)(CC(C)C)c2ccc(O)c(C)c2)ccc1O`, the survivor count (dose: 400.0 mg/kg/injection, schedule: Q01DX009 (ip), vehicle: gum acacia) is reported as 0 of 6.
In the case of `CC1(C)N=C(N)N=C(N)N1c1ccc(CCCCc2ccc(Cl)c(S(=O)(=O)F)c2)c(Cl)c1`, the T/C (dose: 2.0 mg/kg/injection, schedule: Q01DX009 (ip), vehicle: saline) is reported as 131 % of control, the T/C (dose: 3.0 mg/kg/injection, schedule: Q01DX009 (ip), vehicle: saline) is reported as 127 % of control and the T/C (dose: 5.56 mg/kg/injection, schedule: Q04DX003 (ip), vehicle: saline) is reported as 128 % of control. For the same compound, the T/C (dose: 8.0 mg/kg/injection, schedule: Q01DX009 (ip), vehicle: saline) was 145 % of control, the T/C (dose: 12.5 mg/kg/injection, schedule: Q01DX009 (ip), vehicle: saline) was 137 % of control and the T/C (dose: 12.5 mg/kg/injection, schedule: Q04DX003 (ip), vehicle: saline) was 139 % of control. For the same compound, the T/C (dose: 18.7 mg/kg/injection, schedule: Q04DX003 (ip), vehicle: saline) was 148 % of control, the T/C (dose: 25.0 mg/kg/injection, schedule: Q04DX003 (ip), vehicle: saline) was 127 % of control and the T/C (dose: 100.0 mg/kg/injection, schedule: Q04DX003 (ip), vehicle: saline) was 127 % of control.
In the case of `CC(=O)Nc1cc2c(cc1[N+](=O)[O-])-c1ccccc1C2O` (stereo not drawn), the survivor count (dose: 400.0 mg/kg/injection, schedule: Q01DX009 (ip), vehicle: saline with Tween-80) is reported as 4 of 6.
In the case of `CN(C)CCNC(=O)Cc1cc(O)c2c(c1O)C(=O)c1ccccc1C2=O`, the survivor count (dose: 200.0 mg/kg/injection, schedule: Q01DX005 (ip), vehicle: saline) is reported as 5 of 6.
In the case of `C/C(=C\C1C/C(=C/CCc2ccoc2)C(=O)O1)CCCc1ccoc1` (stereo not drawn), the T/C (dose: 10.0 mg/kg/injection, schedule: Q01DX009 (ip), vehicle: other) is reported as 132 % of control.
In the case of `COc1cc(C2c3cc4c(cc3C(O)C(CO)C2CO)OCO4)cc(OC)c1OC` (stereo not drawn), the T/C (dose: 8.25 mg/kg/injection, schedule: Q01DX009 (ip), vehicle: Klucel (hydroxypropylcellulose) (HPC)) is reported as 127 % of control, the T/C (dose: 17.5 mg/kg/injection, schedule: Q01DX009 (ip), vehicle: Klucel (hydroxypropylcellulose) (HPC)) is reported as 140 % of control and the T/C (dose: 35.0 mg/kg/injection, schedule: Q01DX009 (ip), vehicle: Klucel (hydroxypropylcellulose) (HPC)) is reported as 145 % of control. The T/C [4] was 140 % of control, the survivor count (dose: 140.0 mg/kg/injection, schedule: Q01DX009 (ip), vehicle: Klucel (hydroxypropylcellulose) (HPC)) was 10 of 10 and the T/C (dose: 150.0 mg/kg/injection, schedule: Q04DX003 (ip), vehicle: saline sonified) was 145 % of control.
For `O=[N+]([O-])c1ccccc1N=N/C(Cc1ccccc1)=N\Nc1ccccc1`, the survivor count [5] was 4 of 6.
With `C[C@]12C=CC(=O)C=C1[C@@H](F)C[C@@H]1[C@@H]2[C@@H](O)C[C@@]2(C)[C@H]1CC[C@]2(O)C(=O)CO` the survivor count (dose: 200.0 mg/kg/injection, schedule: Q01DX009 (ip), vehicle: Klucel (hydroxypropylcellulose) (HPC)) was 4 of 6 and the survivor count [5] was 6 of 6.
For `CCCCCCCCS.[Ni]`, the survivor count (dose: 200.0 mg/kg/injection, schedule: Q04DX003 (ip), vehicle: Klucel (hydroxypropylcellulose) (HPC)) was 3 of 6, the survivor count (dose: 400.0 mg/kg/injection, schedule: Q01DX001 (ip), vehicle: Klucel (hydroxypropylcellulose) (HPC)) was 1 of 6 and the survivor count [1] was 0 of 6.
For `Nc1ncnc2c1ncn2C1CCCO1` (stereo not drawn), the survivor count (dose: 400.0 mg/kg/injection, schedule: Q04DX003 (ip), vehicle: saline) was 4 of 6.
With `CCCCNc1c(OC)ccc2c(C)c3[n+](cc12)CCc1cc(OC)c(OC)cc1-3` the survivor count (dose: 6.25 mg/kg/injection, schedule: Q04DX003 (ip), vehicle: water) was 6 of 6, the survivor count (dose: 12.5 mg/kg/injection, schedule: Q04DX003 (ip), vehicle: water) was 0 of 6 and the survivor count (dose: 25.0 mg/kg/injection, schedule: Q04DX003 (ip), vehicle: water) was 0 of 6.
In the case of `COc1cccc(N)c1N`, the T/C (dose: 100.0 mg/kg/injection, schedule: Q01DX009 (ip), vehicle: suspension in saline) is reported as 127 % of control and the survivor count (dose: 400.0 mg/kg/injection, schedule: Q01DX009 (ip), vehicle: suspension in saline) is reported as 5 of 6.
For `CC[n+]1c(-c2ccccc2)c2cc(N)ccc2c2ccc(N)cc21` (tested in a mixture with another compound), the T/C (dose: 100.0 mg/kg/injection, schedule: Q01DX009 (ip), vehicle: other) was 135 % of control, the T/C (dose: 200.0 mg/kg/injection, schedule: Q01DX009 (ip), vehicle: other) was 126 % of control and the T/C (dose: 400.0 mg/kg/injection, schedule: Q01DX009 (ip), vehicle: other) was 135 % of control.
For `COc1cc(/C=N/NC(=O)c2ccncc2)cc(OC)c1OC`, the T/C (dose: 100.0 mg/kg/injection, schedule: Q01DX009 (ip), vehicle: Klucel (hydroxypropylcellulose) (HPC)) was 127 % of control.
In the case of `NC(=O)NNC(N)=O`, the survivor count (dose: 100.0 mg/kg/injection, schedule: Q01DX009 (ip), vehicle: saline) is reported as 6 of 6.
`CN(C)CCCc1c2ccccc2nc2ccc(Cl)cc12` was tested, and the T/C (dose: 25.0 mg/kg/injection, schedule: Q01DX009 (ip), vehicle: saline) was 100, 109 (2×), 140 % of control, the survivor count (dose: 50.0 mg/kg/injection, schedule: Q01DX009 (ip), vehicle: saline) was 6 of 6 and the survivor count (dose: 75.0 mg/kg/injection, schedule: Q01DX009 (ip), vehicle: saline) was 1 of 6. The survivor count (dose: 150.0 mg/kg/injection, schedule: Q01DX009 (ip), vehicle: saline) was 6 of 6 and the survivor count (dose: 300.0 mg/kg/injection, schedule: Q01DX009 (ip), vehicle: saline) was 6 of 6.
For `OCCNCCNc1ccnc2cc(Cl)ccc12`, the survivor count [2] was 6 of 6.
`CC(=O)N1C(=O)NC(=O)C1(C)c1cccs1` (stereo not drawn) was tested, and the survivor count (dose: 300.0 mg/kg/injection, schedule: Q01DX009 (ip), vehicle: saline with Tween-80) was 4 of 6.
With `c1ccc(N=NC2=NN(c3ccccc3)CS2)cc1` the T/C (dose: 100.0 mg/kg/injection, schedule: Q01DX009 (ip), vehicle: saline with Tween-80) was 129 % of control.
